The list shows a part of the results.
How the values were obtained:
Assay in all cases: log2 fold change, soluble protein after heating vs DMSO (PISA); higher = thermal stabilisation; K562 lysate, 10 uM; active = over 0.2 and 3.5 SD of the protein, either way, in both replicates (recomputed)
ibrutinib = compound: C=CC(=O)N1CCC[C@@H](n2nc(-c3ccc(Oc4ccccc4)cc3)c3c(N)ncnc32)C1 [ibrutinib]
Method in brief: (§1)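 To prepare the extract, K562 pellets were dounce-homogenised in PBS pH 7.4 with 1 mM MgCl2, giving crude material at 1 mg/mL protein. This was treated with 10 μM compound for 30 min, then heated in aliquots for 3 min over 48°C-58°C before pooling and addition of NP-40 to 0.5% at 4°C. Centrifugation at 21,000xg for 90 min left soluble protein in the supernatant, which TMTpro 16plex LC-MS/MS quantified with equalised channel sums. Results are log-two fold changes in thermal stability compared with solvent controls, from duplicates.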

Chains of the proteins cited; added tags and fusions are not shown. Lines headed by an entry give the natural chain unless they say otherwise; changes in a name come on top.
UniProt Q96GZ6: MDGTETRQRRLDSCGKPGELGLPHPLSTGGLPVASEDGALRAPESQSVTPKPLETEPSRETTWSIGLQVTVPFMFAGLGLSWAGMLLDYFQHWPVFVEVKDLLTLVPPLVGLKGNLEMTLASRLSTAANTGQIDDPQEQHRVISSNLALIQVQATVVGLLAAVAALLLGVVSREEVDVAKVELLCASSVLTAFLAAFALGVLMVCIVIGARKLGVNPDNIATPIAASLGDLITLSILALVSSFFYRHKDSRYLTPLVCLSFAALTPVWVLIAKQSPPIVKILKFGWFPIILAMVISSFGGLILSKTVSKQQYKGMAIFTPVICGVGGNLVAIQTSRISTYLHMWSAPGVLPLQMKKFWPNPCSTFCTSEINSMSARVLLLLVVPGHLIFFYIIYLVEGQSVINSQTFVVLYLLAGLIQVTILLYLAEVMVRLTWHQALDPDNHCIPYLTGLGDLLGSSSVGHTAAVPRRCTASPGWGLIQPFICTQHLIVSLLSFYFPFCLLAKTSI
UniProt P0CK96: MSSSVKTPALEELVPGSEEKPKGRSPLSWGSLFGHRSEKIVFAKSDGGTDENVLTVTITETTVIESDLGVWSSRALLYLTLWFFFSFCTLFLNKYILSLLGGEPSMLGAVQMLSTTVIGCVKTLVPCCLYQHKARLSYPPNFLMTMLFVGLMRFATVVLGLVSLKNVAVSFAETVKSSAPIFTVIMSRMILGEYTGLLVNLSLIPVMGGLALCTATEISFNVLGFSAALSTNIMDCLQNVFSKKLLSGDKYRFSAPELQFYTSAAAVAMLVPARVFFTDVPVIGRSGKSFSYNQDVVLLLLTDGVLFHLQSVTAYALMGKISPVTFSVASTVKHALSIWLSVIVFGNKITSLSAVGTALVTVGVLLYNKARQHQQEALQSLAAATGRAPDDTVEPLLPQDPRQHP
UniProt Q9NTN3, whole entry, looked up: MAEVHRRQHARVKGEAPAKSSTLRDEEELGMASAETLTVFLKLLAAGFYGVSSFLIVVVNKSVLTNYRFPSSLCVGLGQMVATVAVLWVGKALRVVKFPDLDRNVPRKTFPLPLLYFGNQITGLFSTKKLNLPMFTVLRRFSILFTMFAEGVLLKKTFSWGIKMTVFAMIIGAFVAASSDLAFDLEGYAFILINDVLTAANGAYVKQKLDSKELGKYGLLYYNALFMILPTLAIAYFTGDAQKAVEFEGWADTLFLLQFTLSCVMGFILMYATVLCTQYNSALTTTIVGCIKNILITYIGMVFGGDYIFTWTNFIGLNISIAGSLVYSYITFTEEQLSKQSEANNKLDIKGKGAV
UniProt Q96T83: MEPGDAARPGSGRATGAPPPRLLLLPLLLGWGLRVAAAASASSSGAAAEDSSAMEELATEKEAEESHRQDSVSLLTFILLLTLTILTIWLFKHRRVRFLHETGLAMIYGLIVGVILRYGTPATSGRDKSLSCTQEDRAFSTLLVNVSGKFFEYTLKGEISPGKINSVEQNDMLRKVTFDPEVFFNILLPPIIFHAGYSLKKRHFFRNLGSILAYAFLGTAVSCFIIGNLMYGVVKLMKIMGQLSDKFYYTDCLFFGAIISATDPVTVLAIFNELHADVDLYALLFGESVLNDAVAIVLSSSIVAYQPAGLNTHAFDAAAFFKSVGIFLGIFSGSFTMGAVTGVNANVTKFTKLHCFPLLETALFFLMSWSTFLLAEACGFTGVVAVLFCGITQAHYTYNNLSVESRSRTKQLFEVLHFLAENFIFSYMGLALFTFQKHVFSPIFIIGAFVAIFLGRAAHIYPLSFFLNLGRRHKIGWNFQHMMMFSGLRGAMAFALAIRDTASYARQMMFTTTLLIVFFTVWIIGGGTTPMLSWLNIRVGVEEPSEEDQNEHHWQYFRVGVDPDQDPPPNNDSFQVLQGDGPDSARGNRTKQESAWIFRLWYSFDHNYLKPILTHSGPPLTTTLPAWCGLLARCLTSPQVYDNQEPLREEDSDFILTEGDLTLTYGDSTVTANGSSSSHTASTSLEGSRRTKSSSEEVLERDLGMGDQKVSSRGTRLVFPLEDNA
UniProt Q9C0K1: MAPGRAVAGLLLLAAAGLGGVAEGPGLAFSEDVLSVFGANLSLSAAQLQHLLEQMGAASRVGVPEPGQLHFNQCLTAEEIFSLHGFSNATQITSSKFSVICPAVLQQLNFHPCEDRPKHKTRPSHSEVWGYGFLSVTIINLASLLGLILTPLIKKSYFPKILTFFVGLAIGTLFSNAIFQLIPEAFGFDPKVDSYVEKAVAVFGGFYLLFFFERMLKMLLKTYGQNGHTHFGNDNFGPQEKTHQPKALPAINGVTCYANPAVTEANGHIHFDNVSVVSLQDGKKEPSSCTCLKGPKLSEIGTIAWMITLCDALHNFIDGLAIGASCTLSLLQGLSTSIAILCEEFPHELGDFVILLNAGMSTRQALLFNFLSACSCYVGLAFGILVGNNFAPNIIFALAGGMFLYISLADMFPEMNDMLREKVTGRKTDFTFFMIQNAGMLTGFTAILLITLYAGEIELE
UniProt Q8N755: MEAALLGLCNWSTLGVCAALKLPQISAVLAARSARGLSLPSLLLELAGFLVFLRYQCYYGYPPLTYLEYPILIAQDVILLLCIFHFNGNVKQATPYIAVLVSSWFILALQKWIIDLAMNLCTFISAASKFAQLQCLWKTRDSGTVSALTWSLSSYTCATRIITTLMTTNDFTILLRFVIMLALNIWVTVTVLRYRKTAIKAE
UniProt P78383: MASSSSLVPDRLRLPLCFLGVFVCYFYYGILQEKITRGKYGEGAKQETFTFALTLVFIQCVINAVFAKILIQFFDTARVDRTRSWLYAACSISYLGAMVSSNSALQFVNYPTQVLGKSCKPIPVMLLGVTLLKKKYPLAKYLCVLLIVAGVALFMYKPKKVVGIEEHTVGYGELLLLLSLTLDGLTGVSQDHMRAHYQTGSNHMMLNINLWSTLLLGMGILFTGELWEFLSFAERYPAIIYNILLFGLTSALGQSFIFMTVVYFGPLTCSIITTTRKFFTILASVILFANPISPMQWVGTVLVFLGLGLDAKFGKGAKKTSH
UniProt Q9BZD2: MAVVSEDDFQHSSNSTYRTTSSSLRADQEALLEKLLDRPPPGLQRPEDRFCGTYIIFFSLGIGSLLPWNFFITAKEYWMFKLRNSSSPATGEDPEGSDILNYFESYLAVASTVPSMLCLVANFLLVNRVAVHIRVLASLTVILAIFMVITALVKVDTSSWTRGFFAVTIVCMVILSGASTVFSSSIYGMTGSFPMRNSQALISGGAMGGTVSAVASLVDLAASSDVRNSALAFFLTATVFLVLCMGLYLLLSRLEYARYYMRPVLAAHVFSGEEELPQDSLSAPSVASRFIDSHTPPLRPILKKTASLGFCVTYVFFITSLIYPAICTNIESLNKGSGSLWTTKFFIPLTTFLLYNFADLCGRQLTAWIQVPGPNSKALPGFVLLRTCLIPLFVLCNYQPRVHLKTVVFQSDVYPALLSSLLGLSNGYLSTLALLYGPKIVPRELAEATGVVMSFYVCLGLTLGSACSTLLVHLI
UniProt Q9BZJ4: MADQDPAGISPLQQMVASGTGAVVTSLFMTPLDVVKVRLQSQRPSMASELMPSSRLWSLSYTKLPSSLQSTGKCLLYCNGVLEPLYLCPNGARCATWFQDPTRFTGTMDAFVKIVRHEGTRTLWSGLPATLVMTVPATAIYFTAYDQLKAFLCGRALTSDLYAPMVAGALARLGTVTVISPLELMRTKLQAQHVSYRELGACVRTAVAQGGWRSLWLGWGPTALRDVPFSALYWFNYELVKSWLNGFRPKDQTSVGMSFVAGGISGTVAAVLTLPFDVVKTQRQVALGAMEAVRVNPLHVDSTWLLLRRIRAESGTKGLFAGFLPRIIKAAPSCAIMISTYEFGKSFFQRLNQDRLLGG

ralimetinib = compound: CC(C)(C)Cn1c(N)nc2ccc(-c3[nH]c(C(C)(C)C)nc3-c3ccc(F)cc3)nc21 [ralimetinib]
Method in brief: as §1

[1] = compound: CC(C)(O)CC(=O)NCCn1ccc2ncnc(Nc3ccc(Oc4cccc(C(F)(F)F)c4)c(Cl)c3)c21
Method in brief: as §1

[2] = compound: CC1=C(C(CC(=O)N1)C2=CC=C(C=C2)C(F)(F)F)C(=O)NC3=C(C=C4C(=C3)C=NN4)F
Method in brief: as §1

[3] = compound: CC1=C(C=C(C=C1)NC(=O)C2=CC(=CC=C2)N(C)C)NC(=O)C3=CC=C(C=C3)O
Method in brief: as §1

vemurafenib = compound: CCCS(=O)(=O)Nc1ccc(F)c(C(=O)c2c[nH]c3ncc(-c4ccc(Cl)cc4)cc23)c1F [vemurafenib]
Method in brief: as §1

barasertib = compound: CCN(CCCOc1ccc2c(Nc3cc(CC(=O)Nc4cccc(F)c4)[nH]n3)ncnc2c1)CCOP(=O)(O)O [barasertib]
Method in brief: as §1

[4] = compound: CC[C@@H]1C(=O)N(C)c2cnc(Nc3ccc(C(=O)NC4CCN(C)CC4)cc3OC)nc2N1C1CCCC1
Method in brief: as §1

[5] = compound: CCn1c(C(=O)N(C2CC2)C2CC2)cc2c3c(ncn3C)c(Nc3cc(C)n(C)n3)nc21
Method in brief: as §1

[6] = compound: CCn1cc(-c2ccnc3[nH]c(-c4cccc(CN(C)C)c4)cc23)c(-c2ccc(NC(=O)N(C)C)cc2)n1
Method in brief: as §1

[7] = compound: CN1CCC(CNc2ccc3ncc(-c4cccc(OC(F)(F)F)c4)n3n2)CC1
Method in brief: as §1

[8] = compound: CC1=C(C=C(C=C1)NC(=O)C2=CC(=CC=C2)C(C)(C)C#N)NC3=CC4=C(C=C3)N=CN(C4=O)C
Method in brief: as §1

sotrastaurin = compound: CN1CCN(c2nc(C3=C(c4c[nH]c5ccccc45)C(=O)NC3=O)c3ccccc3n2)CC1 [sotrastaurin]
Method in brief: as §1

[9] = compound: CC(=O)c1cnc2ccc(-c3cc(Cl)c(O)c(Cl)c3)nc2c1N[C@H]1CC[C@H](CN(C)C)CC1
Method in brief: as §1

[10] = compound: CC1=CC=C(C=C1)SC2=C3C=C(SC3=CN=C2)C(=O)N
Method in brief: as §1

[11] = compound: CCCS(=O)(=O)Nc1ccc(F)c(C(=O)c2c[nH]c3ncc(Cl)cc23)c1F
Method in brief: as §1

volasertib = compound: CC[C@@H]1C(=O)N(C)c2cnc(Nc3ccc(C(=O)N[C@H]4CC[C@H](N5CCN(CC6CC6)CC5)CC4)cc3OC)nc2N1C(C)C [volasertib]
Method in brief: as §1

[12] = compound: CC(C)C1=C2N=C(C=C(N2N=C1)NCC3=CC=CC=C3)NCCCCCCN
Method in brief: as §1

[13] = compound: CC1=C(C2=C(C=C1)C(=O)C3=CC=CC=C3N2CCCN)C
Method in brief: as §1

saracatinib = compound: CN1CCN(CCOc2cc(OC3CCOCC3)c3c(Nc4c(Cl)ccc5c4OCO5)ncnc3c2)CC1 [saracatinib]
Method in brief: as §1

Measured: log2 fold change

SLC41A3 isoform 9 (UniProt Q96GZ6)
inactive: ibrutinib 0.025 | ralimetinib -0.151 | [1] 0.023 | [2] 0.03 | [3] 0.019 | vemurafenib 0.121 | barasertib -0.146 | [4] 0.043 | [5] -0.097 | [6] -0.437 | [7] 0.033

SLC35E2B (UniProt P0CK96)
inactive: vemurafenib -0.049 | [4] -0.082

SLC35D1 (UniProt Q9NTN3)
inactive: [8] 0.039 | vemurafenib 0.164 | sotrastaurin 0.083

SLC9A7 (UniProt Q96T83)
inactive: ibrutinib 0.118 | [9] -0.126 | [8] -0.417 | [10] -0.102 | [11] 0.041 | barasertib 0.249 | volasertib -0.038 | sotrastaurin -0.105

SLC39A8 (UniProt Q9C0K1)
inactive: [9] -0.115 | ralimetinib 0.116 | [1] -0.001 | [12] 0.024 | [2] 0.036 | [8] 0.067 | [3] 0.02 | [10] 0.02 | vemurafenib -0.056 | [11] -0.037 | [4] 0.018 | volasertib 0.062 | [5] -0.042 | [6] -0.057 | [7] 0.108 | sotrastaurin 0.053

SLC66A3 (UniProt Q8N755)
inactive: [9] 0.033 | [13] -0.052 | [8] -0.193 | [10] 0.006 | vemurafenib 0.079 | [11] 0.024 | volasertib -0.029 | saracatinib 0.069 | sotrastaurin -0.068

Two entries picked at random from those above, as already listed:
SLC9A7 (UniProt Q96T83)
inactive: ibrutinib 0.118 | [9] -0.126 | [8] -0.417 | [10] -0.102 | [11] 0.041 | barasertib 0.249 | volasertib -0.038 | sotrastaurin -0.105

SLC35D1 (UniProt Q9NTN3)
inactive: [8] 0.039 | vemurafenib 0.164 | sotrastaurin 0.083

Next entries.

SLC35B1 isoform 2 (UniProt P78383)
inactive: [9] -0.04 | ralimetinib 0.062 | [1] -0.016 | [12] 0.005 | [2] 0.041 | [13] -0.004 | [8] 0.07 | [3] 0.035 | [10] -0.107 | vemurafenib 0.059 | [11] 0.024 | [4] 0.094 | volasertib 0.148 | [5] -0.1 | [6] -0.227 | [7] 0.365 | saracatinib 0.007 | sotrastaurin 0.019

SLC29A3 (UniProt Q9BZD2)
inactive: [9] 0.094 | ralimetinib 0.094 | [1] -0.021 | [12] -0.006 | [2] 0 | [8] 0.019 | [3] 0.017 | [10] -0.081 | [11] -0.103 | volasertib -0.048 | [5] 0.06 | [6] -0.109 | [7] 0.078 | sotrastaurin -0.077

SLC25A39 (UniProt Q9BZJ4)
inactive: [12] -0.111 | [2] -0.123 | [13] -0.171 | [6] -0.125 | [7] -0.568 | saracatinib -0.06

Reference: the supplement of paper PMC10849652
